In paper PMC8152475 (Biomedicines, 2021):
Like-named read-outs stand apart in the source and are kept apart here. No constants are given. Whether binding was seen depends on the method and setting. In cells and extracts the contact can be indirect. Here binding means that the protein was enriched with, or labelled near, the bait; the list need not be complete. For some assays here: Sequences can lack the tags named with a protein.

Chains of the proteins cited; added tags and fusions are not shown. Residues count along the entry.
UniProt P9WIN9, residues 24-228: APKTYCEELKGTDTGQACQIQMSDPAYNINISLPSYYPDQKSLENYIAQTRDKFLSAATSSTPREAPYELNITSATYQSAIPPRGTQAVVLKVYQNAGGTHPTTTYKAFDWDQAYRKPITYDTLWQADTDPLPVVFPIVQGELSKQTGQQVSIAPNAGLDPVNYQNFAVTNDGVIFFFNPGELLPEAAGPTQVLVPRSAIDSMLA
UniProt P14598: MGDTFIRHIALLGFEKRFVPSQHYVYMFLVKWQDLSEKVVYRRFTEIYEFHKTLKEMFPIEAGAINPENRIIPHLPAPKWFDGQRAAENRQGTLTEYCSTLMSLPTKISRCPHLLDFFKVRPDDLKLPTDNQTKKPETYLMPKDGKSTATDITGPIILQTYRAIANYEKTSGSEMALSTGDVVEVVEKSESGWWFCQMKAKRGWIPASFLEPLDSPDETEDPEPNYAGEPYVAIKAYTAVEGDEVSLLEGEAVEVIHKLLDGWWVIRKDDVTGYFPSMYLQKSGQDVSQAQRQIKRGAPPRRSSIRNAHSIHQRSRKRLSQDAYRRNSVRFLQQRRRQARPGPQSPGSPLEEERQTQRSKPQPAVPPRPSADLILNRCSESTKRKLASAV
UniProt P31749: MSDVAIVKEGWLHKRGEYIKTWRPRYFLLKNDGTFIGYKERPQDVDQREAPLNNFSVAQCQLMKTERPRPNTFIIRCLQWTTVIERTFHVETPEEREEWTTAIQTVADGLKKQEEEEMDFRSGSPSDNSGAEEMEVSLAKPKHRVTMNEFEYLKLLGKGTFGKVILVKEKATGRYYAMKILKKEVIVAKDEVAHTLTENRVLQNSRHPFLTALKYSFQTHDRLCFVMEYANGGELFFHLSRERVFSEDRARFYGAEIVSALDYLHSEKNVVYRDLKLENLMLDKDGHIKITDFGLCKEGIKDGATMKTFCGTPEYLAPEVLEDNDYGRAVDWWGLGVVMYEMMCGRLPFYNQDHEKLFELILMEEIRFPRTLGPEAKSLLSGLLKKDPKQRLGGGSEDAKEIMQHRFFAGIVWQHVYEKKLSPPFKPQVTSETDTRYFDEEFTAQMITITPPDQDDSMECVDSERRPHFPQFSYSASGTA
UniProt Q9UHD2: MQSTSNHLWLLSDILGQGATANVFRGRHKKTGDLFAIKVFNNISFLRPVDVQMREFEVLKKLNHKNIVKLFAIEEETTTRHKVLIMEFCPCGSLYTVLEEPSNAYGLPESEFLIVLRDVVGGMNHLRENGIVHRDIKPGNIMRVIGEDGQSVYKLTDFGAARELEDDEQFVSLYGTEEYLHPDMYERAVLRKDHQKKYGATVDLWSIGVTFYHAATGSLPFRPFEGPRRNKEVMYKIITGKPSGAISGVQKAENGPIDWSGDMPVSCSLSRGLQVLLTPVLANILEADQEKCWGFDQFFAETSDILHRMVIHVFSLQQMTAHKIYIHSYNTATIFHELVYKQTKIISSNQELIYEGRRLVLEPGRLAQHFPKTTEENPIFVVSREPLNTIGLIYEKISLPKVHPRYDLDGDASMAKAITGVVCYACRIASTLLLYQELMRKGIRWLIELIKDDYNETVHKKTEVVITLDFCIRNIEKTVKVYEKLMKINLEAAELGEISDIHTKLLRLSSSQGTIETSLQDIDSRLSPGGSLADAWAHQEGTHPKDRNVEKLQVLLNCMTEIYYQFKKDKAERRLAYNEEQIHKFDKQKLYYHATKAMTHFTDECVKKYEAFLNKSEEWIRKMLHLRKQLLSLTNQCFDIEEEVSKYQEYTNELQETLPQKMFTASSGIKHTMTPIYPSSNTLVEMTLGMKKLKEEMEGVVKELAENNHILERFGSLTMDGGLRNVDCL
UniProt Q9Y4K3: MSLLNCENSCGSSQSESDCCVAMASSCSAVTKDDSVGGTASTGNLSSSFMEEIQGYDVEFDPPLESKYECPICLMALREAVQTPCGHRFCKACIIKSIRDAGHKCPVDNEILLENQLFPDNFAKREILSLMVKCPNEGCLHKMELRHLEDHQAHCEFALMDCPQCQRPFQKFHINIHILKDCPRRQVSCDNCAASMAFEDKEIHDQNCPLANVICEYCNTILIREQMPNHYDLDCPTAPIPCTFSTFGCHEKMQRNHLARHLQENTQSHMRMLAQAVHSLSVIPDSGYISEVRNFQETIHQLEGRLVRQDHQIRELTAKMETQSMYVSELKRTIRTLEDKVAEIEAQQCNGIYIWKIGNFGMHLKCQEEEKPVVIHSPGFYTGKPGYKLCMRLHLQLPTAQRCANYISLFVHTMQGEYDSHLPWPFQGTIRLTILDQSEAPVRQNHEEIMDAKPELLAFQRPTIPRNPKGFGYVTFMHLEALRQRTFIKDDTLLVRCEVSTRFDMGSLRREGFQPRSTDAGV
UniProt Q13546: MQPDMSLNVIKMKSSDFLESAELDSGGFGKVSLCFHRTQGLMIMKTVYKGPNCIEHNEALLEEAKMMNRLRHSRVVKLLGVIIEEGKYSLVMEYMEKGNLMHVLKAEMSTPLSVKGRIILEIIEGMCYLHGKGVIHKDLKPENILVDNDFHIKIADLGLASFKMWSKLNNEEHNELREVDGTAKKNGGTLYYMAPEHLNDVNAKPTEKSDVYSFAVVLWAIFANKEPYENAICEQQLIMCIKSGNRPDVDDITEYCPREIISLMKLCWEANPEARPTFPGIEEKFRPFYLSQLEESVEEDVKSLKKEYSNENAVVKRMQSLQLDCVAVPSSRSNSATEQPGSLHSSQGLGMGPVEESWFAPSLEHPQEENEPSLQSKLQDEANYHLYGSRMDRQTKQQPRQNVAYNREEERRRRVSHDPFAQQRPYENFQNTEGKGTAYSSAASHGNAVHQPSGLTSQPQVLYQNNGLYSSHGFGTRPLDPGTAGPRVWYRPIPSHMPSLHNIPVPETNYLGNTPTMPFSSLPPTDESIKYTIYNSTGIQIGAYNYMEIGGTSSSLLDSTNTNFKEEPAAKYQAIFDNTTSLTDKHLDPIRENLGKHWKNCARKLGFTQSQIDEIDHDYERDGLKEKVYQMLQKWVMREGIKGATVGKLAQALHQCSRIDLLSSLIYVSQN

Experiments:
Experiment in all cases: affinity purification with mass spectrometry; only the target purified
[1] = biological target: T1, recombinant MPT63 (rMPT63) (Mycobacterium tuberculosis H37Rv) (UniProt P9WIP1)
T1 sequence: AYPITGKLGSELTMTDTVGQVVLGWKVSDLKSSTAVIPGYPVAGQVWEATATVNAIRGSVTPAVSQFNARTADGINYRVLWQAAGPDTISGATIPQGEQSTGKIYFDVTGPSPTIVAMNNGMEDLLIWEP

[2] = biological target: recombinant MPT64 (rMPT64) (Mycobacterium tuberculosis H37Rv) (UniProt P9WIN9)
[3] = biological target: recombinant MPT64 (rMPT64) (Mycobacterium tuberculosis H37Rv) (UniProt P9WIN9); remark: listed apart in the source

Molecule: Neutrophil cytosol factor 1 (p47phox), endogenous in THP-1 (from UniProt P14598 1-390)
- binding [1]: binds

Molecule: RAC-alpha serine/threonine-protein kinase (AKT), endogenous in THP-1 (from UniProt P31749 1-480)
- binding [1]: binds

Molecule: TANK-binding kinase (TBK1), endogenous in THP-1 (from UniProt Q9UHD2 1-729)
- binding [2]: binds
- binding [1]: binds

Molecule: TNF receptor associated factor 6 (TRAF6), endogenous in THP-1 (from UniProt Q9Y4K3 1-522)
- binding [2]: binds

Molecule: protein kinase Cα (PKCα), endogenous in THP-1 (from UniProt P17252 1-672)
- binding [2]: binds

Molecule: receptor-interacting serine/threonine-protein kinase 1 (RIP1), endogenous in THP-1 (from UniProt Q13546 1-671)
- binding [1]: binds

B1: hexokinase 2 (HK2), endogenous in THP-1 (protein, UniProt P52789 1-917)
chain: MIASHLLAYFFTELNHDQVQKVDQYLYHMRLSDETLLEISKRFRKEMEKGLGATTHPTAAVKMLPTFVRSTPDGTEHGEFLALDLGGTNFRVLWVKVTDNGLQKVEMENQIYAIPEDIMRGSGTQLFDHIAECLANFMDKLQIKDKKLPLGFTFSFPCHQTKLDESFLVSWTKGFKSSGVEGRDVVALIRKAIQRRGDFDIDIVAVVNDTVGTMMTCGYDDHNCEIGLIVGTGSNACYMEEMRHIDMVEGDEGRMCINMEWGAFGDDGSLNDIRTEFDQEIDMGSLNPGKQLFEKMISGMYMGELVRLILVKMAKEELLFGGKLSPELLNTGRFETKDISDIEGEKDGIRKAREVLMRLGLDPTQEDCVATHRICQIVSTRSASLCAATLAAVLQRIKENKGEERLRSTIGVDGSVYKKHPHFAKRLHKTVRRLVPGCDVRFLRSEDGSGKGAAMVTAVAYRLADQHRARQKTLEHLQLSHDQLLEVKRRMKVEMERGLSKETHASAPVKMLPTYVCATPDGTEKGDFLALDLGGTNFRVLLVRVRNGKWGGVEMHNKIYAIPQEVMHGTGDELFDHIVQCIADFLEYMGMKGVSLPLGFTFSFPCQQNSLDESILLKWTKGFKASGCEGEDVVTLLKEAIHRREEFDLDVVAVVNDTVGTMMTCGFEDPHCEVGLIVGTGSNACYMEEMRNVELVEGEEGRMCVNMEWGAFGDNGCLDDFRTEFDVAVDELSLNPGKQRFEKMISGMYLGEIVRNILIDFTKRGLLFRGRISERLKTRGIFETKFLSQIESDCLALLQVRAILQHLGLESTCDDSIIVKEVCTVVARRAAQLCGAGMAAVVDRIRENRGLDALKVTVGVDGTLYKLHPHFAKVMHETVKDLAPKCDVSFLQSEDGSGKGAALITAVACRIREAGQR
- binding [3]: binds
